Assay results published in publication PMC5995870.
No constants are given. Whether binding was seen depends on the method and setting. For some assays here: Binding seen in cells or lysates may run through a third protein. Some results given as binding are weak or reduced against the parent protein; the word gives no strength. For some assays here: Where a sequence is shown, tags or fusion partners need not be part of it.

The chains behind the UniProt entries cited, without tags or fusion partners.
UniProt Q14694: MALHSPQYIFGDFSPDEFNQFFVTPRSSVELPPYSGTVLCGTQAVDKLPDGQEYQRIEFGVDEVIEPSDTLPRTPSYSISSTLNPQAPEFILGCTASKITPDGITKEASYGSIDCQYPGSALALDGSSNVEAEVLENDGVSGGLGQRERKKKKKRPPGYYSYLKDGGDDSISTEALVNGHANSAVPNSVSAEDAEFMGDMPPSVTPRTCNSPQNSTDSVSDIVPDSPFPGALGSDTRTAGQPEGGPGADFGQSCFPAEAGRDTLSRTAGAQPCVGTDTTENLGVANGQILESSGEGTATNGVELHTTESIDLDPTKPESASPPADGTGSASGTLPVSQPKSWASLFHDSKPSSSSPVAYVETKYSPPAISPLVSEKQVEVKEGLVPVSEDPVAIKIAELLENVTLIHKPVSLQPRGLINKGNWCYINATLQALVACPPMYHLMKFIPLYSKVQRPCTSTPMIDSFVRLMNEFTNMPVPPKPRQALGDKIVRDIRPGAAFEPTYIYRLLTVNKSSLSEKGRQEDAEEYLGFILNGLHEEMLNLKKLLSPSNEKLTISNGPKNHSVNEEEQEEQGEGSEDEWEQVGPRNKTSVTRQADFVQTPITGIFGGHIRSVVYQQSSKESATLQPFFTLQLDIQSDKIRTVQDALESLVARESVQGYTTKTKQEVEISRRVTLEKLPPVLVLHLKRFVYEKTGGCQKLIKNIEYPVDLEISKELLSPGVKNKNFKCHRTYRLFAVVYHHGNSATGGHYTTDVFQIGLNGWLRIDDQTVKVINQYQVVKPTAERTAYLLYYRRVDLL
UniProt Q5VVQ6: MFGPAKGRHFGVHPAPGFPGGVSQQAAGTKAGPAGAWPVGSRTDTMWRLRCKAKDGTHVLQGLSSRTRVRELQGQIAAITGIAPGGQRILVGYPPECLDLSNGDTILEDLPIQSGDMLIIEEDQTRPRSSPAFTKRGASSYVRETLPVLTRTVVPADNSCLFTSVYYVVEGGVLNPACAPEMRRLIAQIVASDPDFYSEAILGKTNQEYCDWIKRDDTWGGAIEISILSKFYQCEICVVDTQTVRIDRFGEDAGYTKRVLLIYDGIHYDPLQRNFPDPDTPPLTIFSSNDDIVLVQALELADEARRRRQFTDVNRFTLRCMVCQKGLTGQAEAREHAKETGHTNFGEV
UniProt Q6GQQ9: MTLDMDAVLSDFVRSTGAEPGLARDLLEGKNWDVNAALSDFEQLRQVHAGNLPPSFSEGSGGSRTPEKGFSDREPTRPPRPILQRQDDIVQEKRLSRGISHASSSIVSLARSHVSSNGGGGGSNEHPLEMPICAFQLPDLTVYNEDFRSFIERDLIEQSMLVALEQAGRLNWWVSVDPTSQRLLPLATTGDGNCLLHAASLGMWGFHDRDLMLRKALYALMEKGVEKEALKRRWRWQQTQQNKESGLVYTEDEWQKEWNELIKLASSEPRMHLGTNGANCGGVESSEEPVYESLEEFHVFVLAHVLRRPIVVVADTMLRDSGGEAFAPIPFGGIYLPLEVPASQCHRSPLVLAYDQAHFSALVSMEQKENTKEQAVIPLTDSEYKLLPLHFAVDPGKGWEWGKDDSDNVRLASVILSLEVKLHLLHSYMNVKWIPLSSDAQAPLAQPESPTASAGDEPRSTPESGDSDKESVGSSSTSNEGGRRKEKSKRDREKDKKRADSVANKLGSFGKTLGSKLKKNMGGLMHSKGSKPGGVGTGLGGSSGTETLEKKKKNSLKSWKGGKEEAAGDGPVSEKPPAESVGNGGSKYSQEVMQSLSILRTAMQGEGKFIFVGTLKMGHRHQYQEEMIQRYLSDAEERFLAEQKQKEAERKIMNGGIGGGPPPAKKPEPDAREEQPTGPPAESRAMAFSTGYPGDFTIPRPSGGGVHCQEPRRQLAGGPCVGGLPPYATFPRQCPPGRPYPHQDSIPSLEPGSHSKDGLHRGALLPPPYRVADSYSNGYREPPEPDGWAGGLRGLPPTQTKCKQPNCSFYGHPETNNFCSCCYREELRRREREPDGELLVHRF
UniProt O00303: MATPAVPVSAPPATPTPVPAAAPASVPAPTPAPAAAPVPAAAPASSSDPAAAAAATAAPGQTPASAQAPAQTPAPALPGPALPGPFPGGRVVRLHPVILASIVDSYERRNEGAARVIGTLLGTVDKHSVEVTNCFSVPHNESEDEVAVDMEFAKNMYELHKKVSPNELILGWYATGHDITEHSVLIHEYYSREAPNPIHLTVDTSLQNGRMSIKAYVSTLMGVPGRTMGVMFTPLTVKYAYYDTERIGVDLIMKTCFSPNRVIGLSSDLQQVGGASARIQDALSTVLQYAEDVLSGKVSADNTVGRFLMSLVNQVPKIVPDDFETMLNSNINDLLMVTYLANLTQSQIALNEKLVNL

Legend:
[1] = target: T1, GST-OTUD1 (human) (UniProt Q5VV17); test: pull-down; in vitro binding; purified His-YAP incubated with purified GST-OTUD1, pulldown with Glutathione Sepharose beads; both purified
T1 sequence: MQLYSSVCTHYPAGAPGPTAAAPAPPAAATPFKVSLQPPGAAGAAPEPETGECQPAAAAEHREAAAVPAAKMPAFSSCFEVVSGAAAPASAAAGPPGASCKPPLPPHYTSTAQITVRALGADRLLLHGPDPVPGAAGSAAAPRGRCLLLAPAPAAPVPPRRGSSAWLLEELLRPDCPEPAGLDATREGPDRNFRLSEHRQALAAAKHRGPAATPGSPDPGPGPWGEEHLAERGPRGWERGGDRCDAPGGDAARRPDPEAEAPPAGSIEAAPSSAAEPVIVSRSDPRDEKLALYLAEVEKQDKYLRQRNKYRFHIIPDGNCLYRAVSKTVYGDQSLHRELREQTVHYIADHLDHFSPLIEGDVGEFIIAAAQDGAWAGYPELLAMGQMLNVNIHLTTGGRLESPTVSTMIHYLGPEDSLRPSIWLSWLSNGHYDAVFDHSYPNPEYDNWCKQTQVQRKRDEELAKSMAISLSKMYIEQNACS

[2] = target: T2, SFB-tagged JOSD2 (human) (UniProt Q8TAC2); test: pull-down; SFB-tagged DUBs co-transfected with MYC-YAP into HEK293T cells; pulldown with S-protein beads; blots for FLAG and MYC
T2 sequence: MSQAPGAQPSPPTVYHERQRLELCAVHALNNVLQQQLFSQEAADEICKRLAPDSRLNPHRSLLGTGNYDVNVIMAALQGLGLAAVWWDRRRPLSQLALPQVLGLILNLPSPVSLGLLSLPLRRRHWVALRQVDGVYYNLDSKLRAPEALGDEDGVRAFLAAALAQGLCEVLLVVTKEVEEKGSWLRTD

[3] = target: SFB-tagged USP10 (human) (UniProt Q14694); test: as above
[4] = target: SFB-tagged YOD1 (human) (UniProt Q5VVQ6); test: as above
[5] = target: T3, SFB-tagged OTUD1 (human) (UniProt Q5VV17); test: as above
T3 sequence: T1 sequence

[6] = target: T4, SFB-tagged USP47 (human) (UniProt Q96K76); test: as above
T4 sequence: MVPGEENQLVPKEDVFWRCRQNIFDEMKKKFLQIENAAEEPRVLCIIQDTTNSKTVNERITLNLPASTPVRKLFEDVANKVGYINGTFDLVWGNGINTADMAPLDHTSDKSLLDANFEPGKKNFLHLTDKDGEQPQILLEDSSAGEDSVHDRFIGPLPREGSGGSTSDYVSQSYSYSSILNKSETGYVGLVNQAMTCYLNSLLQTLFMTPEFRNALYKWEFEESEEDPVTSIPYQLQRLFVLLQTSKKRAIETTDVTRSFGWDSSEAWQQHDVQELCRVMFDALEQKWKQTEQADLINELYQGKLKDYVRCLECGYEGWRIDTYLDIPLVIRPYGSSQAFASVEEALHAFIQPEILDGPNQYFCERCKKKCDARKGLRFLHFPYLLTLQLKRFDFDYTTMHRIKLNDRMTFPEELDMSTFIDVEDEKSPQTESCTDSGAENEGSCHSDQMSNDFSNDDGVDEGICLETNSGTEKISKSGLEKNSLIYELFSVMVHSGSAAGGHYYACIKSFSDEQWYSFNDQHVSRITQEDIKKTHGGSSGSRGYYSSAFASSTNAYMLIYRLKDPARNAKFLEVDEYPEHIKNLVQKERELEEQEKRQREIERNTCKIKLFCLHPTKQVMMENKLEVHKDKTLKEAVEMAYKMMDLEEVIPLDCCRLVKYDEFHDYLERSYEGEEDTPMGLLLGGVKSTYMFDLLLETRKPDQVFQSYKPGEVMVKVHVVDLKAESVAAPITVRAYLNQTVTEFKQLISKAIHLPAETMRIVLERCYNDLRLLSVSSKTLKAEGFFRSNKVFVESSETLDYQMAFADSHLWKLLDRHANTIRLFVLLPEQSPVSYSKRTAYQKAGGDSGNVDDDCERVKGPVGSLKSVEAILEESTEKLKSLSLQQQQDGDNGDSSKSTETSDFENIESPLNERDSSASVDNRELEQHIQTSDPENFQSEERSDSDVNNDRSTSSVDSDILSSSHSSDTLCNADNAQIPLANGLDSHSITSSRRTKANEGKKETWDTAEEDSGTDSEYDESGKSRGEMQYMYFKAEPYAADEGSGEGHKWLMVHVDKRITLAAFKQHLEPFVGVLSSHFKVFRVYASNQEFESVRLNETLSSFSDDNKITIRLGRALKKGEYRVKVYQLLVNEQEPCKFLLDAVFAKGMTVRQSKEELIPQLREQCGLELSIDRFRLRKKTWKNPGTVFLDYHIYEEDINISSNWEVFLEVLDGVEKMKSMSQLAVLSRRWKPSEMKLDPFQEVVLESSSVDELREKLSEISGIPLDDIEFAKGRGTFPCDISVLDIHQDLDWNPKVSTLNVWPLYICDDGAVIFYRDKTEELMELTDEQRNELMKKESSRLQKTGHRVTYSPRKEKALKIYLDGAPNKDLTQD

[7] = target: SFB-tagged OTUD7B (human) (UniProt Q6GQQ9); test: as above
[8] = target: SFB-tagged EIF3S5 (human) (UniProt O00303); test: as above

Measured: binding

His-YAP (from UniProt P46937 1-504)
binds: [1]

MYC-tagged YAP (from UniProt P46937 1-504)
binds: [2] | [3] | [4] | [5] | [6] | [7] | [8]
